Source: PubChem BioAssay AID1259405 (NCATS, 2018)
Purpose: 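Silenced genes that increase secreted GFP made by CHO cells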 (primary screen). System: Chinese hamster CHO-K1 ovary cells with stable secreted eGFP expression. Reagent: single siRNA against mouse genes, 0.8 pmol siRNA per well (2 µl of 400 nM stock). Timing: 3 days. Measured: 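Per-well intracellular GFP measured by laser scanning cytometry, plus viability from ATP luminescence, each relative to plate median of non-targeting control wells, in %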. Direction: GFP, % of control: higher = more GFP per well, higher productivity; viability (ATP), % of control: higher = more viable cells (more ATP). Call rule: 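a knock-down is called active if GFP reaches 120% or more of non-targeting control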.
Here is an unselected part of about 50,000 deposited reagents. About 4,000 of them (8%) were called active. 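Mouse siRNA library applied to hamster cells; one well for each siRNA.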 Unmarked entries are inactive. The numbers tell different reagents against one gene apart.

| Target gene | siRNA no. | GFP, % of control | viability (ATP), % of control |
| --- | --- | --- | --- |
| Gpr34 | 1 | 52.2 | 64.6 |
| Gpr34 | 2 | 75 | 84.5 |
| Gpr34 | 3 | 90.7 | 102 |
| Cdk10 | 1 | 57.8 | 55.7 |
| Fgr | 1 | 105 | 80.4 |
| Fndc3a | 1 | 63.6 | 72.6 |
| Fndc3a | 2 | 113 | 88.2 |
| Fndc3a | 3 | 56.6 | 109 |
| Socs1 | 1 | 65.6 | 41.8 |
| Socs1 | 2 | 21.8 | 37.2 |
| Socs1 | 3 | 86.9 | 82.9 |
| Or5p61 | 1 | 83.2 | 42.3 |
| Or5p61 | 2 | 89 | 74.4 |
| Or5p61 | 3 | 49.1 | 67.2 |
| Crls1 | 1 | 53.2 | 27.8 |
| Crls1 | 2 | 60.8 | 64.9 |
| Crls1 | 3 | 46.9 | 60.7 |
| Krtap26-1 | 1 | 62.9 | 95.8 |
| Krtap26-1 | 2 | 49.8 | 56.2 |
| Krtap26-1 | 3 | 75 | 65 |
| Pla2g2c | 1 | 47.7 | 79.6 |
| Pla2g2c | 2 | 65.3 | 109 |
| Pla2g2c | 3 | 71 | 67.5 |
| Unc119 | 1 | 118 | 116 |
| Unc119 | 2 | 84.1 | 91 |
| Unc119 | 3 | 85.7 | 75.3 |
| Ca9 | 1 | 122 (active) | 102 |
| Ca9 | 2 | 76.7 | 66.8 |
| Abhd10 | 1 | 105 | 91.3 |
| Abhd10 | 2 | 115 | 89.2 |
| Abhd10 | 3 | 116 | 111 |
| Zfy2 | 1 | 54.3 | 71 |
| Zfy2 | 2 | 63.4 | 81.4 |
| Zfy2 | 3 | 57.6 | 79.9 |
| Tpx2 | 1 | 87.3 | 65.6 |
| Tpx2 | 2 | 159 (active) | 106 |

Next part; the last 13 above are carried over.
| Target gene | siRNA no. | GFP, % of control | viability (ATP), % of control |
| --- | --- | --- | --- |
| Unc119 | 1 | 118 | 116 |
| Unc119 | 2 | 84.1 | 91 |
| Unc119 | 3 | 85.7 | 75.3 |
| Ca9 | 1 | 122 (active) | 102 |
| Ca9 | 2 | 76.7 | 66.8 |
| Abhd10 | 1 | 105 | 91.3 |
| Abhd10 | 2 | 115 | 89.2 |
| Abhd10 | 3 | 116 | 111 |
| Zfy2 | 1 | 54.3 | 71 |
| Zfy2 | 2 | 63.4 | 81.4 |
| Zfy2 | 3 | 57.6 | 79.9 |
| Tpx2 | 1 | 87.3 | 65.6 |
| Tpx2 | 2 | 159 (active) | 106 |
| Hyal2 | 1 | 115 | 88.2 |
| Hyal2 | 2 | 116 | 74.8 |
| Hyal2 | 3 | 92.6 | 124 |
| Mdn1 | 1 | 62.8 | 64.5 |
| Mdn1 | 2 | 107 | 113 |
| Mdn1 | 3 | 103 | 124 |
| Kcnn3 | 1 | 101 | 84.5 |
| Kcnn3 | 2 | 35.1 | 59.2 |
| Kcnn3 | 3 | 39.1 | 50.1 |
| Naif1 | 1 | 95.5 | 98 |
| Naif1 | 2 | 88.5 | 88.5 |
| Naif1 | 3 | 112 | 113 |
| U90926 | 1 | 55.3 | 62.1 |
| U90926 | 2 | 129 (active) | 83.9 |
| U90926 | 3 | 96.6 | 93.5 |
| Rbm12b2 | 1 | 111 | 85 |
| Rbm12b2 | 2 | 114 | 82.5 |
| Rbm12b2 | 3 | 83.7 | 86.9 |
| Ptrh1 | 1 | 54 | 14.9 |
| Ptrh1 | 2 | 73.3 | 102 |
| Ptrh1 | 3 | 53.2 | 66.4 |
| Mgmt | 1 | 83.6 | 78.1 |
| Mgmt | 2 | 96.4 | 78.3 |
| Mgmt | 3 | 31.7 | 32.2 |
| Lilrb4a | 1 | 76.5 | 45.4 |
| Lilrb4a | 2 | 149 (active) | 106 |
| Lilrb4a | 3 | 107 | 73.5 |
| Orm2 | 1 | 66.8 | 84.7 |
| Orm2 | 2 | 76.7 | 69.4 |
| Fchsd1 | 1 | 42 | 76.5 |
| Fchsd1 | 2 | 110 | 82.3 |
| Fchsd1 | 3 | 62.6 | 70.7 |
| Bhlha15 | 1 | 65.3 | 87.3 |
| Bhlha15 | 2 | 122 (active) | 78.2 |
| Bhlha15 | 3 | 98.2 | 101 |
| Gm1553 | 1 | 45.2 | 68.7 |
| Gm1553 | 2 | 72.6 | 108 |
| Gm1553 | 3 | 55.7 | 86.4 |
| Hlcs | 1 | 64.8 | 67.9 |
| Hlcs | 2 | 83.8 | 59.7 |
| Hlcs | 3 | 87.4 | 105 |
| Rpn2 | 1 | 88.1 | 110 |
| Rpn2 | 2 | 90.9 | 109 |
| Rpn2 | 3 | 83.2 | 98.2 |
| Mrps23 | 1 | 64 | 95.6 |
| Mrps23 | 2 | 37.8 | 96.8 |
| Mrps23 | 3 | 95.8 | 50.7 |
| Ash1l | 1 | 18.1 | 22.5 |
| Ash1l | 2 | 87.3 | 86.4 |
| Ash1l | 3 | 73.5 | 66.9 |
| Edc3 | 1 | 30.4 | 33.2 |
| Edc3 | 2 | 109 | 51.1 |
| Edc3 | 3 | 88.1 | 102 |
| Lce1h | 1 | 49.3 | 89.2 |
| Lce1h | 2 | 95.6 | 116 |
| Lce1h | 3 | 111 | 140 |
| Snx29 | 1 | 84.2 | 55.3 |
| Snx29 | 2 | 103 | 97.5 |
| Snx29 | 3 | 106 | 136 |
| Sprr2f | 1 | 83 | 64.4 |
| Sprr2f | 2 | 107 | 122 |
| Sprr2f | 3 | 136 (active) | 131 |
| Cdca8 | 1 | 65.1 | 87.4 |
| Cdca8 | 2 | 45.3 | 72.6 |
| Cdca8 | 3 | 63.9 | 70.8 |
| Spns3 | 1 | 38.7 | 23.8 |
| Spns3 | 2 | 58.7 | 69.7 |
| Spns3 | 3 | 83.6 | 96.6 |
| Gpr61 | 1 | 82.4 | 89.6 |
| Gpr61 | 2 | 94.8 | 84.3 |
| Gpr61 | 3 | 68.9 | 69.5 |
